Results from paper PMC4758617.
No constants are given. Whether binding was seen depends on the method and setting. In cells and extracts the contact can be indirect. These calls come from enrichment with a bait or labelling near it, and not all partners need be listed. Sequences can lack the tags named with a protein.

T1: FLAG tagged SETD7 (protein lysine methyltransferase SETD7) (human) (UniProt Q8WTS6)
T1 sequence: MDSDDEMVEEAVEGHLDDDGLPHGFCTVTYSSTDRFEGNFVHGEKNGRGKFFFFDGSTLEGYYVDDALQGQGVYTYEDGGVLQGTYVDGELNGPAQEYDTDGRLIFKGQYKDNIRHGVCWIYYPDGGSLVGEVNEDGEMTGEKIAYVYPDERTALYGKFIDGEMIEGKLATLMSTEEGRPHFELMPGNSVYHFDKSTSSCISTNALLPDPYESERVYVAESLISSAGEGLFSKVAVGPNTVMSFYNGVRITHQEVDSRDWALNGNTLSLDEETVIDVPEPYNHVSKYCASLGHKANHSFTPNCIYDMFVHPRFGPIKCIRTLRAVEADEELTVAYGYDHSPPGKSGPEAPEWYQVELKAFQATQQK


Biological target: T1, FLAG tagged SETD7 (protein lysine methyltransferase SETD7) (human)
Experiment: affinity purification with mass spectrometry; nuclear extract of HeLa cells transduced with FLAG:SETD7 (control: empty vector), adjusted to 300 mM salt and 0.1% NP40, on ANTI-FLAG M2 affinity gel; washed with BC300 with 0.1% NP40; eluted with 0.3 mg/ml FLAG peptide; in-gel or in-solution digestion

Row | binding | Binder
1 | binds | SFRS3 (protein, UniProt P84103 1-164) MHRDSCPLDCKVYVGNLGNNGNKTELERAFGYYGPLRSVWVARNPPGFAFVEFEDPRDAADAVRELDGRTLCGCRVRVELSNGEKRSRNRGPPPSWGRRPRDDYRRRSPPPRRRSPRRRSFSRSRSRSLSRDRRRERSLSRERNHKPSRSFSRSRSRSRSNERK
2 | binds | FBL (protein, UniProt P22087 1-321) MKPGFSPRGGGFGGRGGFGDRGGRGGRGGFGGGRGRGGGFRGRGRGGGGGGGGGGGGGRGGGGFHSGGNRGRGRGGKRGNQSGKNVMVEPHRHEGVFICRGKEDALVTKNLVPGESVYGEKRVSISEGDDKIEYRAWNPFRSKLAAAILGGVDQIHIKPGAKVLYLGAASGTTVSHVSDIVGPDGLVYAVEFSHRSGRDLINLAKKRTNIIPVIEDARHPHKYRMLIAMVDVIFADVAQPDQTRIVALNAHTFLRNGGHFVISIKANCIDSTASAEAVFASEVKKMQQENMKPQEQLTLEPYERDHAVVVGVYRPPPKVKN
3 | binds | TRA2B (protein, UniProt P62995 1-288) MSDSGEQNYGERESRSASRSGSAHGSGKSARHTPARSRSKEDSRRSRSKSRSRSESRSRSRRSSRRHYTRSRSRSRSHRRSRSRSYSRDYRRRHSHSHSPMSTRRRHVGNRANPDPNCCLGVFGLSLYTTERDLREVFSKYGPIADVSIVYDQQSRRSRGFAFVYFENVDDAKEAKERANGMELDGRRIRVDFSITKRPHTPTPGIYMGRPTYGSSRRRDYYDRGYDRGYDDRDYYSRSYRGGGGGGGGWRAAQDRDQIYRRRSPSPYYSRGGYRSRSRSRSYSPRRY

Further lines, the binder ahead of its results:

Row | Binder | binding
4 | LUC7L2 (protein, UniProt Q9Y383 1-392) MSAQAQMRAMLDQLMGTSRDGDTTRQRIKFSDDRVCKSHLLNCCPHDVLSGTRMDLGECLKVHDLALRADYEIASKEQDFFFELDAMDHLQSFIADCDRRTEVAKKRLAETQEEISAEVAAKAERVHELNEEIGKLLAKVEQLGAEGNVEESQKVMDEVEKARAKKREAEEVYRNSMPASSFQQQKLRVCEVCSAYLGLHDNDRRLADHFGGKLHLGFIEIREKLEELKRVVAEKQEKRNQERLKRREEREREEREKLRRSRSHSKNPKRSRSREHRRHRSRSMSRERKRRTRSKSREKRHRHRSRSSSRSRSRSHQRSRHSSRDRSRERSKRRSSKERFRDQDLASCDRDRSSRDRSPRDRDRKDKKRSYESANGRSEDRRSSEEREAGEI | binds
5 | DEK (protein, UniProt P35659 1-375) MSASAPAAEGEGTPTQPASEKEPEMPGPREESEEEEDEDDEEEEEEEKEKSLIVEGKREKKKVERLTMQVSSLQREPFTIAQGKGQKLCEIERIHFFLSKKKTDELRNLHKLLYNRPGTVSSLKKNVGQFSGFPFEKGSVQYKKKEEMLKKFRNAMLKSICEVLDLERSGVNSELVKRILNFLMHPKPSGKPLPKSKKTCSKGSKKERNSSGMARKAKRTKCPEILSDESSSDEDEKKNKEESSDDEDKESEEEPPKKTAKREKPKQKATSKSKKSVKSANVKKADSSTTKKNQNSSKKESESEDSSDDEPLIKKLKKPPTDEELKETIKKLLASANLEEVTMKQICKKVYENYPTYDLTERKDFIKTTVKELIS | binds
